Results from PMC9051519.

Protein sequences, listed by entry. Tags and fused reporters are not part of them. Lines headed by an entry give the natural chain unless they say otherwise; changes in a name come on top.
UniProt D4GUM1: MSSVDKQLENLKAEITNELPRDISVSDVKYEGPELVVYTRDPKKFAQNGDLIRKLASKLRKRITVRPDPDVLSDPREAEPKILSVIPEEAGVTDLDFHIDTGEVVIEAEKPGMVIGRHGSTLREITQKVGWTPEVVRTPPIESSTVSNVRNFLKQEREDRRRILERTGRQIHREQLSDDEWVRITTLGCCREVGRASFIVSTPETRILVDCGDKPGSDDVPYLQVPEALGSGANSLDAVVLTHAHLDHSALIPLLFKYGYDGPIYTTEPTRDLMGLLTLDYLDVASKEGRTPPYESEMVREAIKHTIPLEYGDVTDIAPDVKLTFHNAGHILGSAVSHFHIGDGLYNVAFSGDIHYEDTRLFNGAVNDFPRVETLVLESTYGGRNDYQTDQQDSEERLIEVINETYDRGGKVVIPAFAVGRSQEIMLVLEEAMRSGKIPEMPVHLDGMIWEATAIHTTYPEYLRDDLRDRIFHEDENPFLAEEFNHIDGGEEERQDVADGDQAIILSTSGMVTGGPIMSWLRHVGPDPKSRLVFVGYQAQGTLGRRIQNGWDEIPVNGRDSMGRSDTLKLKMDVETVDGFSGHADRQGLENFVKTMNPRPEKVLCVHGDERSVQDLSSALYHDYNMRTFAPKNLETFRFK
UniProt D4GPF6: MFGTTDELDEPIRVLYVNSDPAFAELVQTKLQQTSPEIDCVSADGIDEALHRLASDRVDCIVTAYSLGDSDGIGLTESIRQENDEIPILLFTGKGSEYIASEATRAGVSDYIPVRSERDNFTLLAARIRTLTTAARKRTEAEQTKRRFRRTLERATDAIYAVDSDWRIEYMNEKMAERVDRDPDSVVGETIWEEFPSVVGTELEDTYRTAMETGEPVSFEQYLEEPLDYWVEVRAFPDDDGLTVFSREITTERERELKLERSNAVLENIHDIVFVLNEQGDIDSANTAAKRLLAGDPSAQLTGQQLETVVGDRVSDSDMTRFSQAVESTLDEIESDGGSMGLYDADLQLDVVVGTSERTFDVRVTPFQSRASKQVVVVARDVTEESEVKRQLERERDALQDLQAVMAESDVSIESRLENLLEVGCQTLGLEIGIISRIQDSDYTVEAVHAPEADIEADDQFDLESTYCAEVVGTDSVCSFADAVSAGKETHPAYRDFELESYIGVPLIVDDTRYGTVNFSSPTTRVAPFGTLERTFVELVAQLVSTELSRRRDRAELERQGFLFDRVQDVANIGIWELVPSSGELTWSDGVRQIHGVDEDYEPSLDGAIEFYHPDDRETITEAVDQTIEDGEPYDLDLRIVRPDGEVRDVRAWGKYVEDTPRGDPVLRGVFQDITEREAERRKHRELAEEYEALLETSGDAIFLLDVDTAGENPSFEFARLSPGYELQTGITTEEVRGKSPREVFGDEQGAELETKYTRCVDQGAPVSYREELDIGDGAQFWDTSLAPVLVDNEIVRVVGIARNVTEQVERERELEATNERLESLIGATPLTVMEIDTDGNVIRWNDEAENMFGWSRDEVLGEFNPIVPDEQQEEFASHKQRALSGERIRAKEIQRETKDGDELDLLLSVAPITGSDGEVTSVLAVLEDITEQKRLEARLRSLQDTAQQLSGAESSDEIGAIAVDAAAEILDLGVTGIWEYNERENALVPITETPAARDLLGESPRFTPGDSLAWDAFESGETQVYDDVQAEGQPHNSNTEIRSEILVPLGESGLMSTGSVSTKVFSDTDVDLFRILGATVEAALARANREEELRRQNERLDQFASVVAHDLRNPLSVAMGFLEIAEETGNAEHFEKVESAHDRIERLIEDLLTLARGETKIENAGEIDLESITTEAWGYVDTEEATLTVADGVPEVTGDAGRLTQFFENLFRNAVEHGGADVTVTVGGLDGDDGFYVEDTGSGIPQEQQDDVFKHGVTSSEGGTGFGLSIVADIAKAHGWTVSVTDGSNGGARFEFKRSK
UniProt D4GSD5: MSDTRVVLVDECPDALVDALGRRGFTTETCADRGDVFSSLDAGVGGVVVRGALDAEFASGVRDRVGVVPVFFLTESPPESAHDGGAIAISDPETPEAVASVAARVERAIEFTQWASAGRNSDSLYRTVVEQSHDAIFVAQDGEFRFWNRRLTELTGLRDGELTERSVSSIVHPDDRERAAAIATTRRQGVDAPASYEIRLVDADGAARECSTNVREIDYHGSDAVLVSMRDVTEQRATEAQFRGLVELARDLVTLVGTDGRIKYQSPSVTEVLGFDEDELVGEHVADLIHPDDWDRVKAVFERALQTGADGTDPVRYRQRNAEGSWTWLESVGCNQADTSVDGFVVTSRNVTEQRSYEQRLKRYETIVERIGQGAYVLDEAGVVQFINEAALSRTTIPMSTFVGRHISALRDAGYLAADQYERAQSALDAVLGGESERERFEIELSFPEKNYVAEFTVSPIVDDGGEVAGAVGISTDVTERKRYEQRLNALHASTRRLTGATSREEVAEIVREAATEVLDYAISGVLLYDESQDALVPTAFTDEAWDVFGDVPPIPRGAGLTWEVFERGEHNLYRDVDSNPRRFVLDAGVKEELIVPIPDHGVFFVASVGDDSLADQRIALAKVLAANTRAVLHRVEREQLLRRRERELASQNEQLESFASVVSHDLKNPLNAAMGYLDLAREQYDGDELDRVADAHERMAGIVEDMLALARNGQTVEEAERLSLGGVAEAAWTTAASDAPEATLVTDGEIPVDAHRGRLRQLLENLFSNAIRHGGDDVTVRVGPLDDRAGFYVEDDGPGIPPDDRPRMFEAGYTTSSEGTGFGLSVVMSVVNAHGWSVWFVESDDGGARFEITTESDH
UniProt D4GUK5: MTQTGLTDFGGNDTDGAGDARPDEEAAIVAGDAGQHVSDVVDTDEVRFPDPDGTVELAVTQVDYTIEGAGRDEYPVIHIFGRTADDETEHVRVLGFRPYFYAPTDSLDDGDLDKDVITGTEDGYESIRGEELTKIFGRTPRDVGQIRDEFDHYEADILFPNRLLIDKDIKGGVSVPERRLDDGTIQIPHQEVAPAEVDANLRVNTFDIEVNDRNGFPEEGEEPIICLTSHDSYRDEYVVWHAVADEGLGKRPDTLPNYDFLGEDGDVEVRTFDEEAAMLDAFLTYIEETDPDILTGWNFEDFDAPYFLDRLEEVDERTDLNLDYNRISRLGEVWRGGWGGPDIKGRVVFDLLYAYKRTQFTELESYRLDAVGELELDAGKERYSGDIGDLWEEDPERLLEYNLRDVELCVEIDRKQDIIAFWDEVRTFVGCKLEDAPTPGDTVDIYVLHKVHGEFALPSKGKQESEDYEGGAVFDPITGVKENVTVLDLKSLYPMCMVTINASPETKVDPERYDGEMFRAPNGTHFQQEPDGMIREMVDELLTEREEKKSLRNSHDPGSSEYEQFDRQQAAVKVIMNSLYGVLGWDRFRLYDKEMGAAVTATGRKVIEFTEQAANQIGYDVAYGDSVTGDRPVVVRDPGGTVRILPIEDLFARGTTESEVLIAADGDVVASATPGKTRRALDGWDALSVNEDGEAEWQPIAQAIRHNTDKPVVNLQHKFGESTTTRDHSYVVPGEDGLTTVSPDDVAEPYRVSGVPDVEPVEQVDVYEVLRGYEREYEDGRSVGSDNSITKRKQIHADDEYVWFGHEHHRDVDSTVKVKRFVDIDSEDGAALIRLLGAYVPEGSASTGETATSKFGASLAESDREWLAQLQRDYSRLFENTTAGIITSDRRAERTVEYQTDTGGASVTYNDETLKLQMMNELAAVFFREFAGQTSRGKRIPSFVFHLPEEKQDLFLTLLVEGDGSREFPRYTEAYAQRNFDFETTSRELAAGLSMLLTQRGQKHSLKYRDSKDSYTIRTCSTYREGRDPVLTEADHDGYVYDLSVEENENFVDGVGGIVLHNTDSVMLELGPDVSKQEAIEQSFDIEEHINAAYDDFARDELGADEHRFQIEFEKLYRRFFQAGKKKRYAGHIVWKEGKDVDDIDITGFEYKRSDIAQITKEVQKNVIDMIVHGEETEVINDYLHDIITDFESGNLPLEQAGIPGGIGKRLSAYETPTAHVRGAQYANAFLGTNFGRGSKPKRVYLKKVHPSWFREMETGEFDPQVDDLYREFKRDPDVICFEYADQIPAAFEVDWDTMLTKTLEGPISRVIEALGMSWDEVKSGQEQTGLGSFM
UniProt D4GQN5: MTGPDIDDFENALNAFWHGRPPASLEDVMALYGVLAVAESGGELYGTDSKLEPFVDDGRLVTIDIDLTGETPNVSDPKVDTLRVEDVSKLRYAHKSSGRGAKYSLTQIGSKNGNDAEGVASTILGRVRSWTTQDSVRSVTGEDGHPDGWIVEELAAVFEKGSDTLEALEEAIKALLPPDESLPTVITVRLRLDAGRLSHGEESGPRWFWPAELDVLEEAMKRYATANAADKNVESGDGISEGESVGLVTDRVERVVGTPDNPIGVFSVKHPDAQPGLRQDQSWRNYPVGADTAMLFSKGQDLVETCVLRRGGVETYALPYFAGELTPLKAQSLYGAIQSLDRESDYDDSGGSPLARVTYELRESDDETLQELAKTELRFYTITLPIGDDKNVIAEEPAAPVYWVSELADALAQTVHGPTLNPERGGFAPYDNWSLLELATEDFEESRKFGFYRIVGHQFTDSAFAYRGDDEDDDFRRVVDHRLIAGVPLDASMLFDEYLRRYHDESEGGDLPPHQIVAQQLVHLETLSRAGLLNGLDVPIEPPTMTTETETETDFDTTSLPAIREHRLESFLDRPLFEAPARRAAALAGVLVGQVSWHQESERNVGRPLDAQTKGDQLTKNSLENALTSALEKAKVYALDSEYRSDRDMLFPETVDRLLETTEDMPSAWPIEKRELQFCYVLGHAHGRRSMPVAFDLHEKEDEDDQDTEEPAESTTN
UniProt D4GVJ5: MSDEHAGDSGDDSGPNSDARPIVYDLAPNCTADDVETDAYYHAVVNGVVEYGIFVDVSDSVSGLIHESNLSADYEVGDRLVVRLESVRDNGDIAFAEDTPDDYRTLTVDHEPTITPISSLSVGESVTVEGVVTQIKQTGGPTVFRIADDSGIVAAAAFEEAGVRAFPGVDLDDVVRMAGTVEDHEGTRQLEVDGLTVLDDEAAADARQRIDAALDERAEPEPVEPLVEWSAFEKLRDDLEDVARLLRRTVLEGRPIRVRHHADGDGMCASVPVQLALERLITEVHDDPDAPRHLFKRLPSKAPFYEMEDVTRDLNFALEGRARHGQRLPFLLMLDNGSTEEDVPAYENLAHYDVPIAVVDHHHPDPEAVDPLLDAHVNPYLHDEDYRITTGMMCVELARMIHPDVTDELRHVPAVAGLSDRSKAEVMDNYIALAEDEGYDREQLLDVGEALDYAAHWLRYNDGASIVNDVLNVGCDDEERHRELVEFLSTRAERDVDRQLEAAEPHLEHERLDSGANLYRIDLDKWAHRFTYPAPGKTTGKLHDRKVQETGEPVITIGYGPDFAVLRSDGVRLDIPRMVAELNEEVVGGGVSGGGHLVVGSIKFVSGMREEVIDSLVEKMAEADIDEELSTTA

B1: UvrABC system protein A (protein, UniProt D4H019 1-983)
chain: MSKDYIEVRGAEEHNLKNLDVRIPRETFTVVTGLSGSGKSSLAFDTVYAEGQRRYIESLSAYARNFLGQMDKPKVEAVEGLSPAISIDQKNGANNPRSTVGTVTELHDYLRLLYARVGTQYDPITGAEVGEQSAQDMVDQILELPEGTRAKVVAPVVRDQKGEFKDLFSDLVSEGYARVEVDGEEFDLSFETPDLDKNYDHTIDVVVDRVKVAPEARSRIADSVETALEEAGGVLKLIVPDPPADLPFASNTRSTGSLAGEGDDRLVVEFSEELGNPNSSFRFSEIETRSFSFNSPHGACPECEGLGKAKEVDPDLVVTDPSKPLKHVFEPWSYNRTYYRRQLDNVADHFGVSVDTPFEELSDEVQDAFLFGTSEDVVFEWTTKNGTRHKEHPFEGVVGNLERRHVETDSDRTRDHIEEFMAVTTCPDCNGSRLKEQSRHVRVGGTTLPEVNRMTIAGALEHFEGLEADLSERHRTIAQEILKEIRARLGFMTEVGLEYLTLDREAATLSGGESQRIRLATQVGSGLVGVLYVLDEPSIGLHQRDNDKLLNTLEGLRDLGNTLIVVEHDEETMRRADEIIDMGPGPGKRGGEVVAQGDFDDIVAADDSITADYLSGRKDIDVPESRREGDGELVVRGARQHNLDDLDVPIPLETFTAVTGVSGSGKSTLMHEILYKGLARRMNDNTSVDPGEHDAIEGYDDIETVRLIDQSPIGRTPRSNPATYTGVFDYVRELFAETKLSKQRGYEKGRFSFNVKGGRCEACKGQGNVKIEMNFLSDVYVPCEECNGARYNAETLDVTYKDKTIADVLDMEVDEALDFFEANSQIRRRLQLLHDVGLGYMQLGQPSTTLSGGEAQRVKLAEELGKKQTGDTLYLLDEPTTGLHKEDERKLIEVLQRLVDNGNTVLVVEHELDLVKNADHIVDLGPEGGAGGGTIVASGTPEEIAANPDSHTGRYLRDYLPDVDEEGPRSDRRKPAKVTNDDD
B2: DNA mismatch repair protein MutS (protein, UniProt D4GSE9 1-924)
chain: MTTQGIVGQFLSLKEETDADLLAMQCGDFYEFFADDAETVGRELDLKVSQKSSHGSSYPMAGVPLNDLTPYLKALVERGYRVAVADQYETESGDLRREVKRVVTPGTLLETSRADAQFLAAVVTDGDGVGLAFSDITTGQFLVTEAATVDDAAAELYRFAPVEVLPGPELRSDDETLSRLREATDASFSLFATEAFAPGRARHAVREQFGASTVDSVGLDSDLATRAAGGVLAYVEETGAGVLRSMTRLQVYHPSDLLELDATTQRNLELTETMHGDRSGSLFDTIDHTVTSPGGRLLREWLTRPRRDRDELARRHDAVESLASAALARERVREVLDGAYDLERLASRSASGSAGASELLSVRDTLSVLPALADAIEGTELADSPLAEVVSRPDRDAAADLRTDLADALAEDPPKTVTQGGLFQTGYDDELDDLIERHESAKSWLDTLADREKRDHGLSHVTVDRNKTDGYYIQVGKSVADQVPDHYRQIKTLKNSKRFVTEELEEKEREILRLEEARGDLEYELFEDLRERVARHAELLQDVGRTIAEVDALASLATHAAGNGWTRPELTEAGALDIEAGRHPVVETTTDFVPNDLRMDDERGFLIVTGPNMSGKSTYMRQAALITLLAQVGSFVPARSATVGVVDGIYTRVGALDELAQGRSTFMVEMQELSNILHSATEDSLVILDEVGRGTATYDGISIAWAATEYLHNEVRAKTLFATHYHELTSLADHLDRVANVHVAADERDGDVTFLRTVVDGPTDRSYGIHVADLAGVPRPVVDRAGDVLDRLREEKAIEAKGSGTSEPVQAVFDVGSGQMKVAEAGDSGGDGDDSAGSGAPANGATGTGAAGNGSVDAAAAVEGSAEADRAGTGSDSEAEAALDPETEAVLDELQSTDVNDTSPLDLMAKVQAWQSKLDGGDGE

Molecular target: T1, FLAG-Cas1 fusion protein (Haloferax volcanii) (UniProt D4GQP0)
T1 sequence: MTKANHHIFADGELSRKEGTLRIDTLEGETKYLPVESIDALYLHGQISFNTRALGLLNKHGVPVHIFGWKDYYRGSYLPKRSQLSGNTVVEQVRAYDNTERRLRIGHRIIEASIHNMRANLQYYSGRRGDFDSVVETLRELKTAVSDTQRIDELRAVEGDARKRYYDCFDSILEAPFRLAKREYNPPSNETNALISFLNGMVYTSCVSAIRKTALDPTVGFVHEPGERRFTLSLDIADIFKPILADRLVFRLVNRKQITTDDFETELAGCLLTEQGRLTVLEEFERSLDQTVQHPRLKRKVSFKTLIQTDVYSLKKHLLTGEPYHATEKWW
Experiment: affinity purification with mass spectrometry; FLAG-Cas1 expressed in H. volcanii Δcas1; S100 lysate treated with DNase and RNase A, 150 mM NaCl; anti-FLAG M2 affinity gel overnight at 4°C, washed with 50 mM Tris/HCl pH 7.4, 150 mM NaCl, eluted with 3xFLAG peptide; gel filtration (Superdex 75 Increase), fractions with Cas1 at about 670 kDa analysed by MS; two FLAG-Cas1 purifications, one FLAG-only control

| Molecule | binding |
| --- | --- |
| zinc-dependent nuclease CPSF1 (from UniProt D4GUM1) (enzyme) | binds |
| receiver/sensor box histidine kinase (from UniProt D4GPF6) (enzyme) | binds |
| sensor box histidine kinase (from UniProt D4GSD5) (enzyme) | binds |
| DNA-directed DNA polymerase B (intein-containing) (from UniProt D4GUK5) (enzyme) | binds |
| Cas8b (from UniProt D4GQN5) | binds |
| Hef-associated 3 exonuclease (from UniProt D4GVJ5) (enzyme) | binds |
| B1 | binds |
| B2 | binds |

No constants are given. Whether binding was seen depends on the method and setting. In cells and extracts the contact can be indirect. Here binding means that the protein was enriched with, or labelled near, the bait; the list need not be complete. Where a sequence is shown, tags or fusion partners need not be part of it.
